# Data: PubChem BioAssay (NCATS)
# Values joined by “and” are separate entries in the source; they are usually repeats but may differ in a detail not shown here. Equal entries are not always repeated. This is one part of the list. Further columns of the screen follow, without active or inactive calls. Most of these compounds were active or inconclusive in the main read-out, so they are no random draw. For some of these results: The note in brackets gives the kind of curve behind each potency; many fits are weak.
# Legend:
# [1] = qHTS Assay for Inhibitors of PDE-IV (AID 607); conditions: HEK293 ACTOne CNG channel cells, membrane potential fluorescence; measured here: parental cell counter-screen
# Procedure, shortened: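 Cell-based read-out of cAMP via a modified cyclic nucleotide-gated channel and membrane potential dye (535/590 nm) in HEK293 cells expressing PDE4 endogenously. Compounds tested up to 22.9 uM final; 100 uM RO 20-1724 reference.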
# [2] = qHTS Assay for Lipid Storage Modulators (AID 1519); conditions: Drosophila S3 cells, BODIPY lipid droplet/cell ratio, laser cytometry, cells loaded with oleic acid
# Procedure, shortened: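 Cells seeded at 5,000 per well were treated with compounds over a concentration series and loaded with oleic acid (400 uM, as added). Lipid droplet fluorescence (488 nm excitation, 500-530 nm channel) was read by laser-scanning cytometry and normalized to 20 uM Triacsin C.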
# [3] = qHTS assay for small molecule antagonists of peroxisome proliferator-activated receptor gamma signaling (AID 588537); conditions: HEK293 PPARg-UAS-bla, beta-lactamase ratio, antagonist mode; measured here: W460 blue channel
# Procedure, shortened: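 Antagonist-mode β-lactamase reporter screen run as a titration series. HEK293 PPARγ-UAS-bla cells are stimulated with rosiglitazone (50 nM final) for 16 h, then CCF4 is read at 460/530 nm. Data are scaled between DMSO and rosiglitazone and fitted to the Hill equation.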
# [4] = qHTS assay for small molecule agonists of retinoid X receptor alpha signaling (AID 588544); conditions: HEK293T RXRa-UAS-bla, beta-lactamase reporter, 18 h; 530 nm emission
# [5] = qHTS assay for small molecule antagonists of retinoid X receptor alpha signaling (AID 588546); conditions: HEK293T RXRa-UAS-bla, beta-lactamase ratio, antagonist mode; measured here: W530 green channel, cytotoxicity proxy;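 note: cells stimulated with 9-cis-retinoic acid as agonist; % is set by controls: 0 for no effect and ±100 for the full control effect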
# Procedure, shortened: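 Beta-lactamase reporter inhibition, read as CCF4 fluorescence ratio (ex 405, em 460/530 nm) after 2 h at RT. HEK293T UAS-bla cells, 2500/well, were stimulated with 9-cis-RA at 500 or 100 nM final alongside test compound for 18 h at 37 C.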
# [6] = qHTS assay for small molecule antagonists of peroxisome proliferator-activated receptor delta signaling (AID 588535); conditions: HEK293T PPARd-UAS-bla, beta-lactamase FRET ratio, 18 h; 460 nm channel;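 note: cells co-treated with a PPAR-delta agonist as stimulator during compound exposure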
# Procedure, shortened: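 Titrations were run on PPAR-delta-UAS-bla HEK293T cells in charcoal/dextran-stripped serum, incubated 18 h at 37 C. CCF4 fluorescence (460/530 nm) after 2 h RT; Hill equation yields IC50 and maximal response.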
# [7] = qHTS assay for small molecule antagonists of vitamin D receptor signaling (AID 588541); conditions: HEK293T VDR-UAS-bla, beta-lactamase ratio, antagonist mode; measured here: W460 blue channel (cell viability)
# [8] = qHTS Validation Assay to Find Inhibitors of Chronic Active B-Cell Receptor Signaling (AID 485345); conditions: ABC-DLBCL cells, chronic BCR signaling reporter
# Procedure, shortened: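 Read-out: ratio of filter-corrected green (IkappaBalpha fusion) to red (native) luciferase signal in doxycycline-induced TMD8 cells after 4 h at 37C. Titration spanned 46 uM–3 nM; Data were normalised to basal cells and 10 uM MG-132 wells.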
# [9] = qHTS assay for small molecule antagonists of glucocorticoid receptor signaling (AID 588533); conditions: HeLa MMTV-bla, GRE beta-lactamase ratio, antagonist mode, 18 h; measured here: W530 channel AC50
# [10] = measured here: cell count channel max response
# [11] = measured here: lipid (BODIPY) channel AC50
# [12] = measured here: lipid channel max response
# [13] = measured here: cell number channel AC50
smiles,measurement,setting,value
CS(=O)(=O)N1CCC2(CCN(Cc3ccc(C#N)cc3)CC2)CC1,AC50,[1],"0.398 µM [rising, single point]"
same,max response,[2]; [10],15.8%
same,AC50,[2]; [11],"0.562 µM [rising, full curve, poor fit]"
same,max response,[2]; [12],23.3%
Nc1ccc(S(=O)(=O)c2ccc(N)cc2)cc1,max response,[2]; [10],26.3%
same,AC50,[2]; [11],"39.8 µM [rising, single point]"
same,max response,[2]; [12],41.2%
same,AC50,[3],"63.1 µM [rising, single point]"
same,max response,[4],-0.122%
same,max response,[5],2.49%
CN1CCN(c2ncc3nc(CCc4ccccc4)c(=O)n(CCc4ccccc4)c3n2)CC1,AC50,[1],"15.8 µM [rising, single point]"
same,max response,[2]; [10],15.1%
same,AC50,[2]; [11],"0.355 µM [rising, full curve, poor fit]"
same,max response,[2]; [12],15.9%
Cc1cc(=O)[nH]c(=S)[nH]1,max response,[2]; [10],17.4%
same,AC50,[2]; [11],"25.1 µM [rising, partial curve, poor fit]"
same,max response,[2]; [12],37.9%
same,max response,[6],184%
CNCCCCCCCCSc1nc(C(C)C)ccc1C(=O)c1cccs1,AC50,[1],"15.8 µM [rising, single point]"
same,max response,[2]; [10],32.2%
same,AC50,[2]; [11],"7.94 µM [rising, full curve]"
same,max response,[2]; [12],67.1%
CCCCCCCCCCCCCCSCC(=O)O,max response,[2]; [10],-9.79%
same,AC50,[2]; [11],"7.94 µM [falling, single point]"
same,max response,[2]; [12],-12%
same,max response,[6],140%
same,AC50,[3],"7.94 µM [rising, full curve, poor fit]"
same,AC50,[7],"17.8 µM [rising, full curve, poor fit]"
same,max response,[4],12.4%
CC(C)(Oc1ccc(Cl)cc1)C(=O)O,AC50,[1],"10 µM [rising, partial curve]"
same,max response,[2]; [10],45.3% and 23.4%
same,AC50,[2]; [11],"31.6 µM [rising, partial curve] and 35.5 µM [rising, single point]"
same,max response,[2]; [12],57.1% and 38%
same,max response,[6],-24.2%
CN(C)Cc1ccccc1-c1nc(NC2CC2)c2ccccc2n1,AC50,[1],"12.6 µM [rising, single point]"
same,max response,[2]; [10],19.4%
same,AC50,[2]; [11],"3.55 µM [rising, single point]"
same,max response,[2]; [12],20.7%
CC(C)(Oc1ccc(CCNC(=O)c2ccc(Cl)cc2)cc1)C(=O)O,max response,[2]; [10],25.3%
same,AC50,[2]; [11],"39.8 µM [rising, single point]"
same,max response,[2]; [12],36.6%
same,max response,[6],69.5%
CC(=O)OCC(COC(C)=O)OC(C)=O,max response,[2]; [10],17.3%
same,AC50,[2]; [11],"39.8 µM [rising, single point]"
same,max response,[2]; [12],34.5%
same,max response,[5],-9.2%
CC(=O)OC/C=C(C)/C=C/C=C(C)/C=C/C1=C(C)CCCC1(C)C,max response,[2]; [10],19%
same,AC50,[2]; [11],"17.8 µM [rising, partial curve]"
same,max response,[2]; [12],30.4%
same,max response,[6],79.6%
same,AC50,[3],"50.1 µM [rising, single point]"
same,max response,[4],48.2% and 52.9%
same,max response,[5],23%
Nc1ccc(CCNc2ncnc3c2ncn3C2OC(CO)C(O)C2O)cc1 (stereo not given),max response,[2]; [10],44.9%
same,AC50,[2]; [13],"0.0251 µM [falling, full curve, poor fit]"
same,max response,[2]; [12],44%
same,AC50,[8]; measured here: CBG/CBR ratio read-out,"2.31 µM [falling, full curve]"
same,AC50,[8]; measured here: CBR control luciferase (viability counter),"1.46 µM [rising, full curve]"
O=C(c1cccc(F)c1)N1CCC2(CCCN(c3ccccc3)C2)CC1,AC50,[1],"10 µM [rising, single point]"
same,max response,[2]; [10],15.5%
same,AC50,[2]; [13],"6.31 µM [rising, single point]"
same,max response,[2]; [12],17.4%
COc1ccc(CNc2nc(-c3ccccc3CN(C)C)nc3ccccc23)c(OC)c1,AC50,[1],"7.94 µM [rising, partial curve]"
same,max response,[2]; [10],-22.6%
same,AC50,[2]; [11],"35.5 µM [falling, single point]"
same,max response,[2]; [12],-40.9%
COc1ccc(CNc2ccnc(-c3ccccc3OC)n2)c(OC)c1,AC50,[1],"12.6 µM [rising, single point]"
same,max response,[2]; [10],10.1%
same,AC50,[2]; [11],"1.41 µM [rising, full curve]"
same,max response,[2]; [12],10.9%
O=C(/C=C/C=C/c1ccc2c(c1)OCO2)N1CCCCC1,max response,[2]; [10],22.9%
same,AC50,[2]; [11],"1.12 µM [rising, full curve, poor fit]"
same,max response,[2]; [12],48.4%
same,max response,[4],18.3%
same,max response,[5],-0.248%
O=C1C(=O)N(Cc2ccc(Cl)c(Cl)c2)c2ccccc21,AC50,[1],"25.1 µM [rising, single point]"
same,max response,[2]; [10],13.9%
same,AC50,[2]; [11],"3.98 µM [rising, single point]"
same,max response,[2]; [12],4.36%
Oc1cc2c(cc1O)[C@H]1c3ccc(O)c(O)c3OC[C@@]1(O)C2,max response,[2]; [10],76.7%
same,AC50,[2]; [11],"31.6 µM [rising, partial curve, poor fit]"
same,max response,[2]; [12],120%
same,AC50,[9],"11.2 µM [falling, partial curve, poor fit]"
same,max response,[6],-23.2%
same,AC50,[3],"0.0398 µM [falling, full curve, poor fit]"

# A different layout for part of the listing above:
smiles | measurement | setting | value
Nc1ccc(S(=O)(=O)c2ccc(N)cc2)cc1 | AC50 | [2]; [11] | 39.8 µM [rising, single point]
same | max response | [5] | 2.49%
CN1CCN(c2ncc3nc(CCc4ccccc4)c(=O)n(CCc4ccccc4)c3n2)CC1 | AC50 | [2]; [11] | 0.355 µM [rising, full curve, poor fit]
CCCCCCCCCCCCCCSCC(=O)O | max response | [2]; [12] | -12%
CC(=O)OC/C=C(C)/C=C/C=C(C)/C=C/C1=C(C)CCCC1(C)C | max response | [2]; [12] | 30.4%
